This note sets out measurements from the odorant receptor screen of Mainland et al. (2015).

Test systems include OR13C3 G2C clone 1339; OR13C3 clone 1390; OR13C4 clone 1094; OR13C7 Indel clone 1100; OR13C8 clone 1095; OR13C9 F197L clone 1096; OR13D1 clone 1338; OR13D1 clone 1484; OR13G1 I132V clone 1036; OR13H1 clone 1497; OR13J1 H133R clone 1098; OR14A16 Indel clone 1030; OR14A2 clone 1042; OR14J1 clone 1318; OR14J1 clone 1391; OR14K1 clone 1043.
Assay in all cases: odorant receptor activation (CRE luciferase / Renilla) (fold of no-odor wells); higher = more activation
Holding throughout (conditions): 100 µM

In assay [1] the test system is OR13C5 S18F/L69M/P79S/L86V/N128S/M258T clone 1477.
In assay [2] the test system is OR13F1 F18S/M101V/V134I/I270T clone 1097.
Assay [3] deals with OR14C36 G225R/D231Y clone 1028.
For assay [4], the system named is OR14I1 V36A/D50N/S170N clone 1479.

“And” between values parts separate entries of the source, which are not always exact repeats. Identical values can stand only once. The list shows a part of the results. Single wells; the ratio to wells without odorant was worked out here, and repeats agree poorly.

Regarding `COC(=O)c1ccccc1` [methyl benzoate], the odorant receptor activation in the assay with OR13C3 G2C clone 1339 was 0.366; in the assay with OR13C3 clone 1390, 0.976; in the assay on OR13C4 clone 1094 it was 1.24; in [1], 0.388 and 0.715; in the assay on OR13C7 Indel clone 1100 it was 1.15; with OR13C8 clone 1095, 2.3. For the same molecule, the odorant receptor activation with OR13C9 F197L clone 1096 was 1.57; in the assay with OR13D1 clone 1338, 0.951; in the assay with OR13D1 clone 1484 it was 1.38 and 0.911; in [2], 1.62; in the assay on OR13G1 I132V clone 1036, 1.01; in the assay with OR13H1 clone 1497, 0.592 and 1.15. In addition, the odorant receptor activation in the assay on OR13J1 H133R clone 1098 was 1.04; with OR14A16 Indel clone 1030, 0.709; in the assay with OR14A2 clone 1042 it was 1.21; in assay [3], 0.545; in assay [4] it was 0.721 and 0.778; in the assay on OR14J1 clone 1318, 0.661. For the same molecule, the odorant receptor activation in the assay with OR14J1 clone 1391 was found to be 0.601; in the assay on OR14K1 clone 1043 it was 1.31.

For `CC(=O)OC(C)(C)C1CC=C(C)CC1` (stereo not given) [terpinyl acetate], the odorant receptor activation was found to be 0.771 with OR13C3 G2C clone 1339; 0.856 in the assay on OR13C3 clone 1390; 1.59 in the assay on OR13C4 clone 1094; 0.848 in assay [1]; 1.03 with OR13C7 Indel clone 1100; 1.78 in the assay with OR13C8 clone 1095. Also, the odorant receptor activation turned out to be 1.5 with OR13C9 F197L clone 1096; 0.769 in the assay with OR13D1 clone 1338; 0.912 with OR13D1 clone 1484; 1.57 in assay [2]; 1.3 in the assay on OR13G1 I132V clone 1036; 1.04 in the assay on OR13H1 clone 1497. For the same molecule, the odorant receptor activation with OR13J1 H133R clone 1098 came out at 1.48; in the assay with OR14A16 Indel clone 1030 it was 1.48; with OR14A2 clone 1042, 1.62; in [3], 1.01; in assay [4], 1.05; with OR14J1 clone 1318, 1.05. Besides, the odorant receptor activation in the assay with OR14J1 clone 1391 was 0.989; in the assay with OR14K1 clone 1043, 1.43.

In the case of `CCCCCCCOC(C)=O` [heptyl acetate], the odorant receptor activation in the assay with OR13C3 G2C clone 1339 is 0.99 and 1.13; in the assay with OR13C3 clone 1390, 1.07; in the assay on OR13C4 clone 1094 it was 0.944; in assay [1] it was 0.837 and 1.17; in the assay on OR13C7 Indel clone 1100 it was 0.818; with OR13C8 clone 1095, 1.54. In addition, the odorant receptor activation is 0.981 in the assay with OR13C9 F197L clone 1096; 1.73 and 0.983 in the assay with OR13D1 clone 1338; 1.03 and 1.31 in the assay on OR13D1 clone 1484; 1.28 in [2]; 0.634 in the assay on OR13G1 I132V clone 1036; 0.885 and 1.21 in the assay on OR13H1 clone 1497. For the same molecule, the odorant receptor activation was 0.415 in the assay with OR13J1 H133R clone 1098; 1.63 in the assay with OR14A16 Indel clone 1030; 1.34 in the assay with OR14A2 clone 1042; 1.06 in assay [3]; 0.875 and 1.2 in assay [4]; 0.687 and 1.09 in the assay with OR14J1 clone 1318. Moreover, the odorant receptor activation was 0.981 with OR14J1 clone 1391 and 1.96 with OR14K1 clone 1043.

On to `COc1cc(C=O)ccc1O` [vanillin], for which the odorant receptor activation worked out at 0.933 with OR13C3 G2C clone 1339; 0.89 with OR13C3 clone 1390; 0.88 in the assay on OR13C4 clone 1094; 1.1 in assay [1]; 0.72 with OR13C7 Indel clone 1100; 1.02 with OR13C8 clone 1095. Besides, the odorant receptor activation in the assay with OR13C9 F197L clone 1096 came to 0.84; in the assay on OR13D1 clone 1338, 1.07; in the assay with OR13D1 clone 1484 it was 1.06; in assay [2], 1.01; with OR13G1 I132V clone 1036 it was 1.16; in the assay with OR13H1 clone 1497, 0.819. Also, the odorant receptor activation is 1.12 in the assay with OR13J1 H133R clone 1098; 1.11 with OR14A16 Indel clone 1030; 0.922 in the assay on OR14A2 clone 1042; 0.835 in [3]; 0.873 in [4]; 1.16 with OR14J1 clone 1318. Moreover, the odorant receptor activation amounted to 1.07 with OR14J1 clone 1391 and 1.08 in the assay on OR14K1 clone 1043.

With `C=CCc1ccc(OC)c(OC)c1` [eugenol methyl ether], the odorant receptor activation in the assay with OR13C3 G2C clone 1339 came out at 1.7; with OR13C3 clone 1390, 1.44; in the assay on OR13C4 clone 1094 it was 1.17; in [1], 1.17; in the assay with OR13C7 Indel clone 1100, 1.45; in the assay with OR13C8 clone 1095 it was 1.4. For the same molecule, the odorant receptor activation was determined as 1.43 with OR13C9 F197L clone 1096; 1.4 in the assay with OR13D1 clone 1338; 1.93 in the assay with OR13D1 clone 1484; 1.22 in assay [2]; 1.73 with OR13G1 I132V clone 1036; 1.36 in the assay with OR13H1 clone 1497. In addition, the odorant receptor activation turned out to be 1.68 in the assay on OR13J1 H133R clone 1098; 1.72 in the assay on OR14A16 Indel clone 1030; 1.48 in the assay on OR14A2 clone 1042; 1.67 in [3]; 1.34 in assay [4]; 1.83 with OR14J1 clone 1318. Moreover, the odorant receptor activation in the assay on OR14J1 clone 1391 was 1.62; with OR14K1 clone 1043, 1.69.

As for `CC(=O)OC1CC2CCC1(C)C2(C)C` (stereo not given) [isobornyl acetate], the odorant receptor activation in the assay on OR13C3 G2C clone 1339 is 1.33 and 0.85; in the assay with OR13C3 clone 1390, 0.721; with OR13C4 clone 1094, 0.912; in [1], 0.809 and 1.26; in the assay with OR13C7 Indel clone 1100, 0.877; with OR13C8 clone 1095 it was 1.9. Also, the odorant receptor activation in the assay with OR13C9 F197L clone 1096 is 1; in the assay with OR13D1 clone 1338, 1.6 and 0.642; with OR13D1 clone 1484, 1.04 and 1.18; in assay [2], 0.992; with OR13G1 I132V clone 1036, 1.01; in the assay with OR13H1 clone 1497, 1.02 and 1.12. The odorant receptor activation is 0.662 in the assay with OR13J1 H133R clone 1098; 1.05 with OR14A16 Indel clone 1030; 0.902 in the assay on OR14A2 clone 1042; 0.853 in [3]; 0.974 and 1.14 in assay [4]; 1.61 and 0.799 in the assay with OR14J1 clone 1318. The odorant receptor activation was found to be 0.929 in the assay with OR14J1 clone 1391 and 0.995 in the assay with OR14K1 clone 1043.

Take `CCCCCCCC=O` [octyl aldehyde]: the odorant receptor activation is 0.983 in the assay on OR13C3 G2C clone 1339; 0.621 with OR13C3 clone 1390; 1.09 with OR13C4 clone 1094; 1.01 in assay [1]; 1.45 in the assay with OR13C7 Indel clone 1100; 1.15 with OR13C8 clone 1095. The odorant receptor activation in the assay with OR13C9 F197L clone 1096 amounted to 1.26; in the assay with OR13D1 clone 1338, 1.21; in the assay with OR13D1 clone 1484 it was 0.887; in assay [2], 1.17; in the assay on OR13G1 I132V clone 1036, 1.12; in the assay on OR13H1 clone 1497, 1.08. Further, the odorant receptor activation in the assay with OR13J1 H133R clone 1098 was determined as 1.06; in the assay with OR14A16 Indel clone 1030, 1.33; in the assay on OR14A2 clone 1042, 1.08; in [3], 1.11; in assay [4] it was 0.839; in the assay on OR14J1 clone 1318, 0.949. The odorant receptor activation in the assay with OR14J1 clone 1391 turned out to be 0.77; in the assay with OR14K1 clone 1043 it was 0.98.
